# Test results taken from PMC7862700.
# Only a part is listed here, and it is no random draw. At the low end of the ranking the order means little.
# What was measured:
# Experiment in all cases: DAPPL (digital affinity profiling via proximity ligation, sequencing)
# Settings in all cases: 10 mM Tris-HCl pH 7.5, 50 mM NaCl, 1 mM DTT, 4% glycerol, room temperature, 30 min; GST-TFs on glutathione beads, 16-mer random dsDNA library, 0.1% …; high values mean tight binding; double strand, one strand shown; scale: fold enrichment (6-mer frequency, TF over GST control)
# [1] = molecular target: T1, ELK1 (UniProt P19419)
# T1 sequence: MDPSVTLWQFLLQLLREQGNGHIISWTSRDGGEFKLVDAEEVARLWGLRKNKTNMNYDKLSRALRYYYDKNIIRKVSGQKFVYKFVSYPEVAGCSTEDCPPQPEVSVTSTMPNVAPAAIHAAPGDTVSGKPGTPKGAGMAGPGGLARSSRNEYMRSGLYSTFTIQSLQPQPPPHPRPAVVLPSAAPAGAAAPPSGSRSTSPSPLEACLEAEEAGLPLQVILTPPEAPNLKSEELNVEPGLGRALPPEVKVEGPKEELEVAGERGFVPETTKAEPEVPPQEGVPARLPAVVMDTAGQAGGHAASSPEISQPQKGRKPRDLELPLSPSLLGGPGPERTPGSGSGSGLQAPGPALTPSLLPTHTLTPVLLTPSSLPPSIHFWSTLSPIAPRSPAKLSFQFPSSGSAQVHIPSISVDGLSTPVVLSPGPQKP
# [2] = molecular target: T2, ELK3 (UniProt P41970)
# T2 sequence: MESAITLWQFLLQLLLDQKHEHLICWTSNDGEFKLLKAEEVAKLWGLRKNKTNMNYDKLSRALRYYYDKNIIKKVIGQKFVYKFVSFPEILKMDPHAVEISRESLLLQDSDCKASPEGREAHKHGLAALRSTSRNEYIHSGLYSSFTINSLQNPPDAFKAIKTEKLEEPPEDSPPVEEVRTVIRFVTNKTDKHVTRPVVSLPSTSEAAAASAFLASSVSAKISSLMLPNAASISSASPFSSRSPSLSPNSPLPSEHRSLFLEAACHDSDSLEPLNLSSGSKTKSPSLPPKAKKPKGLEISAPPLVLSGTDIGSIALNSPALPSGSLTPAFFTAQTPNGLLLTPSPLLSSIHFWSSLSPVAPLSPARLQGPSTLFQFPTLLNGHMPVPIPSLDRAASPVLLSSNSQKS
# [3] = molecular target: T3, SPIC (UniProt Q8N5J4)
# T3 sequence: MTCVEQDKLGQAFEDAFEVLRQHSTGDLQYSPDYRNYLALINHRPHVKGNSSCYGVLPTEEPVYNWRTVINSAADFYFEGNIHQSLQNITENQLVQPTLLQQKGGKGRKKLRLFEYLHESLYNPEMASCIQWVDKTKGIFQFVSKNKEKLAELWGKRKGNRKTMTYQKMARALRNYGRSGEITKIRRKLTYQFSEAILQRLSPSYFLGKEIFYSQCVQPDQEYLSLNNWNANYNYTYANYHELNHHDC
# [4] = molecular target: T4, ETS2 (UniProt P15036)
# T4 sequence: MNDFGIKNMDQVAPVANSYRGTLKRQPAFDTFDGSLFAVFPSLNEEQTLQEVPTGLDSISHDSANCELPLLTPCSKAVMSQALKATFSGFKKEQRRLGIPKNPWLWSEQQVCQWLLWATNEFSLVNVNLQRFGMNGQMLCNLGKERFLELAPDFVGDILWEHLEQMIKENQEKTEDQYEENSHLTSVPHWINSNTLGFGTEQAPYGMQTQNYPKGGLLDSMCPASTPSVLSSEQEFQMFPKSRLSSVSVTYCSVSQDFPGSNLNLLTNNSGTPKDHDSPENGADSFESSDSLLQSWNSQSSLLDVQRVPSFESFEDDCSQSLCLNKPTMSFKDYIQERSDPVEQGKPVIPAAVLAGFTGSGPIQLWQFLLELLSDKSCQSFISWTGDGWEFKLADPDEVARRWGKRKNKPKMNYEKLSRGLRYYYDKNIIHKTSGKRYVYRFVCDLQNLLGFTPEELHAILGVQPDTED
# [5] = molecular target: T5, ETV3 (UniProt P41162-2)
# T5 sequence: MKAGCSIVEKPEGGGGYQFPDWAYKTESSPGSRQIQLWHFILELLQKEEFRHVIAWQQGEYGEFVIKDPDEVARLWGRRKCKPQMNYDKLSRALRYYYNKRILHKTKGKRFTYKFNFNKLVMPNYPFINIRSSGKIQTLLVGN
Sequence,binding signal [1],binding signal [2],binding signal [3],binding signal [4],binding signal [5]
CGCAGA,0.797,0.694,0.755,0.773,0.784
AGCCAA,0.837,0.83,0.966,0.861,0.863
GTTGGG,0.673,0.758,0.784,0.688,0.601
TGGAGC,0.667,0.593,0.649,0.567,0.592
AAGACC,0.852,0.81,0.935,0.841,0.763
GCGCTG,0.726,0.772,0.861,0.98,0.812
CCAGCC,0.84,0.864,0.853,0.785,0.788
CGGCGC,0.642,0.628,0.707,0.614,0.687
GTGTAG,0.678,0.725,0.692,0.619,0.673
CAGGCT,0.819,0.856,0.777,0.822,0.735
GCAGAG,0.645,0.627,0.718,0.7,0.708
GATAGG,0.806,0.874,0.893,0.855,0.893
GAGTTT,0.648,0.663,0.648,0.655,0.623
CGTGAC,0.558,0.583,0.484,0.589,0.533
GTAGTA,0.895,0.914,1,0.932,0.965
TCGGTG,0.497,0.51,0.442,0.567,0.503
AACAGT,0.669,0.68,0.666,0.643,0.739
GAGGCG,0.397,0.365,0.474,0.429,0.376
GGGCGT,0.54,0.528,0.466,0.487,0.466
TCGGCA,0.722,0.712,0.777,0.699,0.705
GGGGGC,0.594,0.587,0.612,0.652,0.59
TCGTGT,0.846,0.789,0.696,0.755,0.767
GGGGCA,0.745,0.679,0.675,0.692,0.601
CAAGGG,0.93,0.963,0.797,0.908,0.845
TGACGT,0.977,0.959,0.831,0.852,0.78
GTGGAC,0.87,0.895,0.965,0.959,0.875
CATAGG,0.736,0.723,0.804,0.769,0.774
TGCAGT,0.869,0.786,0.777,0.851,0.815

# Single records, as listed above. Values in the order: binding signal [1]	binding signal [2]	binding signal [3]	binding signal [4]	binding signal [5]
# GCGCTG reads 0.726	0.772	0.861	0.98	0.812
# GAGTTT reads 0.648	0.663	0.648	0.655	0.623

# (next part)

Sequence,binding signal [1],binding signal [2],binding signal [3],binding signal [4],binding signal [5]
GCCGCG,0.688,0.797,0.753,0.815,0.786
CTAGAG,0.811,0.926,0.87,0.852,0.814
GGTGCT,0.957,0.849,0.837,0.907,0.894
GAGACC,0.256,0.214,0.2,0.231,0.218
CGAGCC,0.876,0.84,0.799,0.819,0.916
GCCCGT,0.586,0.634,0.528,0.57,0.65
GCCCAG,0.768,0.749,0.714,0.771,0.724
AGGTAG,0.706,0.577,0.679,0.663,0.651
GTGGGA,0.604,0.571,0.646,0.595,0.532
AGGGTC,0.837,0.804,0.874,0.917,0.801
GGTGAT,0.788,0.879,0.818,0.788,0.814
GGTCGT,0.568,0.596,0.537,0.645,0.666
GGACAA,0.791,0.83,0.785,0.82,0.84
GGGAGC,0.404,0.388,0.411,0.394,0.397
GTCCAG,0.6,0.661,0.672,0.607,0.618
CAGGCC,0.723,0.778,0.747,0.746,0.697
TCAGTG,0.779,0.763,0.881,0.798,0.765
AGACGG,0.364,0.392,0.353,0.384,0.385
TCAGAG,0.745,0.704,0.73,0.735,0.694
GGGGGT,0.559,0.597,0.599,0.514,0.538
GGCCAT,0.889,0.847,0.842,0.762,0.875
GCAGTA,0.903,0.968,0.815,0.898,0.82
GGCGAG,0.515,0.561,0.59,0.559,0.493
GGTACC,0.785,0.737,0.685,0.756,0.819
GCAGGA,0.792,0.802,0.745,0.894,0.768
ACCATG,0.868,0.89,0.792,0.81,0.846
AAAGAG,0.925,0.99,0.802,0.967,0.918
